Measured values published in paper PMC3141008.

Protein sequences, listed by entry. Tags and fused reporters are not part of them. Lines headed by an entry give the natural chain unless they say otherwise; changes in a name come on top.
UniProt Q9LQ02: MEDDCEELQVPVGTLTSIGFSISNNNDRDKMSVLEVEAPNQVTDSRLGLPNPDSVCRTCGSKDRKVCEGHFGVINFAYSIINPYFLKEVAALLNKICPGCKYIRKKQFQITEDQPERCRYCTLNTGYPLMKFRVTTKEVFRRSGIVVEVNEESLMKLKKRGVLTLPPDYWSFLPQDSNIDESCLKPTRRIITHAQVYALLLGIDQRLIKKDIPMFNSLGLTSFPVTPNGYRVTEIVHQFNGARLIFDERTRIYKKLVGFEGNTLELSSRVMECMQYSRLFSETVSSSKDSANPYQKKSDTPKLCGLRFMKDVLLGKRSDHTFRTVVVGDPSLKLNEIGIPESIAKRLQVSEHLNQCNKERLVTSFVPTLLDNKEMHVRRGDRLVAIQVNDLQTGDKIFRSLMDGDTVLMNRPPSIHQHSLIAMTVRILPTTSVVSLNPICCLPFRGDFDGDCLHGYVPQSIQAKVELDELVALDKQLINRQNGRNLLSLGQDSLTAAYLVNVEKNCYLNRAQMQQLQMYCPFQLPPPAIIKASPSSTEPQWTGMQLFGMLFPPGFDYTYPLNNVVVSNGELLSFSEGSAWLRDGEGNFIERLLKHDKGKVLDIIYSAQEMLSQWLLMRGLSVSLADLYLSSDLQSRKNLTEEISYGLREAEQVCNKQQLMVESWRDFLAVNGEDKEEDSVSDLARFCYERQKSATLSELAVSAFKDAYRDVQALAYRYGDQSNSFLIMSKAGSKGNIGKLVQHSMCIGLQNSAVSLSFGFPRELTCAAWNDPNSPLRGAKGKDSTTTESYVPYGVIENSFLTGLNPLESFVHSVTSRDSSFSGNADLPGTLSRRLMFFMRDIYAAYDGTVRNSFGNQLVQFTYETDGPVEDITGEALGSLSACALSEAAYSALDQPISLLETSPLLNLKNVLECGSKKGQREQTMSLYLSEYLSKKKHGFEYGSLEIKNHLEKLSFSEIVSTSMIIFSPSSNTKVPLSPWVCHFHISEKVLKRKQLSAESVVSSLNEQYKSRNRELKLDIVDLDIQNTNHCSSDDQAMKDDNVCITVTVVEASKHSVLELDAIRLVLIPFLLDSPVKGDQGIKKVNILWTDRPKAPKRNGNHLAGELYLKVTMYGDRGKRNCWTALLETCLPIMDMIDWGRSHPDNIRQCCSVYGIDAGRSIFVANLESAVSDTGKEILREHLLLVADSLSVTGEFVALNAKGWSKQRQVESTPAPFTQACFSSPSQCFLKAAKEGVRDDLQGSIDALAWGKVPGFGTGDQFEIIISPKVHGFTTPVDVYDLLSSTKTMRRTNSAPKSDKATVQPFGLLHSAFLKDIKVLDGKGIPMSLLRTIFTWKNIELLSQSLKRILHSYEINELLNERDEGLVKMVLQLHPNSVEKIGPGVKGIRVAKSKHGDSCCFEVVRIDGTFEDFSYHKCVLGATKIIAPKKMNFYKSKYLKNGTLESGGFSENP
UniProt O81098: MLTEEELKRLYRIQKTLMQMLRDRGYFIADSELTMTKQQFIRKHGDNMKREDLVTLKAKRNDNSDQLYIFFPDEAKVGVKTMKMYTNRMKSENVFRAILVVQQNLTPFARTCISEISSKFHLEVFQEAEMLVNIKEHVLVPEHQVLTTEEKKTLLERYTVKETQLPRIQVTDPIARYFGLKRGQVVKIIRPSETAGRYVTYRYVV
UniProt Q8LFJ6: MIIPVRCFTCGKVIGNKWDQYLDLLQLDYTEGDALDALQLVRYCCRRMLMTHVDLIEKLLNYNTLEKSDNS
UniProt Q9FLM8: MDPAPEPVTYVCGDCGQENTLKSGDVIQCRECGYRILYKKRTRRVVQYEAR
UniProt Q9FJ98: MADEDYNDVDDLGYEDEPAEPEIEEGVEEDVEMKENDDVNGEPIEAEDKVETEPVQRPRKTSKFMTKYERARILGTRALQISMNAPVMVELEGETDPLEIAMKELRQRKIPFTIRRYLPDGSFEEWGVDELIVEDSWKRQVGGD

Each substance was assayed against NUCLEAR RNA POLYMERASE D1 (NRPD1), carboxy-terminal 3×Flag tagged (Arabidopsis thaliana) (UniProt Q9LQ02) (assay: affinity purification with mass spectrometry; ~10 g flower tissue of NRPD1-3×Flag and NRPD1-3×Flag-BLRP T4 plants (Col as negative control); lysis buffer 50 mM Tris pH7.6, 150 mM NaCl, 5 mM MgCl2, 10% glycerol, 0.1% NP-40; Dynabeads conjugated with a Flag antibody, 4°C 2.5 hours; eluted with 3×Flag peptide).

Row | Substance | binding
1 | NRPB5/D5 (from UniProt O81098) | binds
2 | NRPB10/D10/E10 (from UniProt Q8LFJ6 1-71) | binds
3 | NRPB12/D12/E12 (from UniProt Q9FLM8 1-51) | binds

More lines, now with the values ahead:

Row | binding | Substance
4 | binds | NRPB6A/D6A/E6A (from UniProt Q9FJ98 1-144)
5 | binds | RNA-… RNA POLYMERASE 2 (RDR2), endogenous (from UniProt O82504 1-1133)

These are yes or no findings as the source states them, for the method shown. In cells and extracts the contact can be indirect. These calls come from enrichment with a bait or labelling near it, and not all partners need be listed.
